According to the supplement of paper PMC6411743:
± gives the standard deviation of the averaged measurements. This is a selection; strong and weak results do not stand in their true shares. Small differences around the control level are noise.

Chains of the proteins cited; added tags and fusions are not shown. Lines headed by an entry give the natural chain unless they say otherwise; changes in a name come on top.
UniProt Q8IVW6: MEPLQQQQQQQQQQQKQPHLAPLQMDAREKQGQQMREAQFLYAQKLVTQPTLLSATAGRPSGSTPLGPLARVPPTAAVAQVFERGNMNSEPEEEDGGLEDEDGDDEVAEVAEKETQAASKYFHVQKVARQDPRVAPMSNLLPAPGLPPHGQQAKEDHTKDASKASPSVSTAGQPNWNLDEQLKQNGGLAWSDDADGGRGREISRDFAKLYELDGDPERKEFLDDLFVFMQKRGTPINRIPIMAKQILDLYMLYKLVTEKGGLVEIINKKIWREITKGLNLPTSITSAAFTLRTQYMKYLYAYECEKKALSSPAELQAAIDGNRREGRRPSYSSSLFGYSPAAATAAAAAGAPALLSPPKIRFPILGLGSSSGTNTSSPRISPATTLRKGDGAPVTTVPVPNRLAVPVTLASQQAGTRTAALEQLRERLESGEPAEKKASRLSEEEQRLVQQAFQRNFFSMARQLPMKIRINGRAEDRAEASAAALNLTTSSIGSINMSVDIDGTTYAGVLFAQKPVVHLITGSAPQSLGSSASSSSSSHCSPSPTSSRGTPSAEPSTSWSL
UniProt Q8N488: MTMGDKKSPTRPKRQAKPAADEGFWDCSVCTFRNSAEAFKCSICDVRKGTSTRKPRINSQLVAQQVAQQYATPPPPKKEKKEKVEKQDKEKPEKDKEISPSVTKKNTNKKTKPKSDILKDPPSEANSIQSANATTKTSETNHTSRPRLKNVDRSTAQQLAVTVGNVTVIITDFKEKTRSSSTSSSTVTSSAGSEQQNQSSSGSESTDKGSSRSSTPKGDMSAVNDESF
UniProt Q8IUD2: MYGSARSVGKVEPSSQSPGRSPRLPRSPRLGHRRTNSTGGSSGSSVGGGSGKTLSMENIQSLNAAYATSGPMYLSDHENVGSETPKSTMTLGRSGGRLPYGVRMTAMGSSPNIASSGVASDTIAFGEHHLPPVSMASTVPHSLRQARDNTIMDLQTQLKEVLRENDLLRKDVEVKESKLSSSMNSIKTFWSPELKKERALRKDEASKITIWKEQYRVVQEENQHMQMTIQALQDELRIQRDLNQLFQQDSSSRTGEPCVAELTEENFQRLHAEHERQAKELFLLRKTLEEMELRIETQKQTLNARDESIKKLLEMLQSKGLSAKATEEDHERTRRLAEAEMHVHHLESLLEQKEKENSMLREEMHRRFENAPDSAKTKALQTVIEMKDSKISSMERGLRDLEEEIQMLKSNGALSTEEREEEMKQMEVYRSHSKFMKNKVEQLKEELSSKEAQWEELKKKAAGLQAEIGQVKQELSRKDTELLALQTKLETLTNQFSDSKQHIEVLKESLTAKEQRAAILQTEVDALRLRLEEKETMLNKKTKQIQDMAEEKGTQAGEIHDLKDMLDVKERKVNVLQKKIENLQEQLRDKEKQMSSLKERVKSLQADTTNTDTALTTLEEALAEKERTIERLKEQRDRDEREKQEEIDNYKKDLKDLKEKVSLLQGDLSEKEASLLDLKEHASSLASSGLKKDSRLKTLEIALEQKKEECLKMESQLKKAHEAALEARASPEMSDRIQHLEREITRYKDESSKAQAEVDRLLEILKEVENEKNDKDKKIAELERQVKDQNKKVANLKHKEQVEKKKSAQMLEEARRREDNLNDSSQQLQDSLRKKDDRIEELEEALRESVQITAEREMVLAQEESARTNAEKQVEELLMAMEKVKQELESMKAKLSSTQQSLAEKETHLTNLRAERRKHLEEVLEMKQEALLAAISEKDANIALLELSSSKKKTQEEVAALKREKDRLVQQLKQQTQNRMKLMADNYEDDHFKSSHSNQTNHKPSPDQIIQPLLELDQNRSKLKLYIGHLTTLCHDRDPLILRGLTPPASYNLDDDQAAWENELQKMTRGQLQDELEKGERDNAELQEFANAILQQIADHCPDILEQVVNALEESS
UniProt Q8IYU8: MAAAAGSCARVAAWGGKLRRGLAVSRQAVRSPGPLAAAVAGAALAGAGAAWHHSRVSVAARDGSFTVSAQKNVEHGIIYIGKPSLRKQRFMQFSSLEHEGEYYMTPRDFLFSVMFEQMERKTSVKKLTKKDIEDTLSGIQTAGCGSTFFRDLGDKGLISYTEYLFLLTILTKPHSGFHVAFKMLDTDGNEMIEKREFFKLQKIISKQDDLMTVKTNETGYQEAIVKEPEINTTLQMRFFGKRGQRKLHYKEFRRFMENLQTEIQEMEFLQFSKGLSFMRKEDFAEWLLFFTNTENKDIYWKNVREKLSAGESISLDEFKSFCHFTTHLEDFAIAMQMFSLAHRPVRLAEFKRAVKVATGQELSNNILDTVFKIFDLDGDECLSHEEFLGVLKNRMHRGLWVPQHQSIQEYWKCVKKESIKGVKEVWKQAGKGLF
UniProt Q8N3F8: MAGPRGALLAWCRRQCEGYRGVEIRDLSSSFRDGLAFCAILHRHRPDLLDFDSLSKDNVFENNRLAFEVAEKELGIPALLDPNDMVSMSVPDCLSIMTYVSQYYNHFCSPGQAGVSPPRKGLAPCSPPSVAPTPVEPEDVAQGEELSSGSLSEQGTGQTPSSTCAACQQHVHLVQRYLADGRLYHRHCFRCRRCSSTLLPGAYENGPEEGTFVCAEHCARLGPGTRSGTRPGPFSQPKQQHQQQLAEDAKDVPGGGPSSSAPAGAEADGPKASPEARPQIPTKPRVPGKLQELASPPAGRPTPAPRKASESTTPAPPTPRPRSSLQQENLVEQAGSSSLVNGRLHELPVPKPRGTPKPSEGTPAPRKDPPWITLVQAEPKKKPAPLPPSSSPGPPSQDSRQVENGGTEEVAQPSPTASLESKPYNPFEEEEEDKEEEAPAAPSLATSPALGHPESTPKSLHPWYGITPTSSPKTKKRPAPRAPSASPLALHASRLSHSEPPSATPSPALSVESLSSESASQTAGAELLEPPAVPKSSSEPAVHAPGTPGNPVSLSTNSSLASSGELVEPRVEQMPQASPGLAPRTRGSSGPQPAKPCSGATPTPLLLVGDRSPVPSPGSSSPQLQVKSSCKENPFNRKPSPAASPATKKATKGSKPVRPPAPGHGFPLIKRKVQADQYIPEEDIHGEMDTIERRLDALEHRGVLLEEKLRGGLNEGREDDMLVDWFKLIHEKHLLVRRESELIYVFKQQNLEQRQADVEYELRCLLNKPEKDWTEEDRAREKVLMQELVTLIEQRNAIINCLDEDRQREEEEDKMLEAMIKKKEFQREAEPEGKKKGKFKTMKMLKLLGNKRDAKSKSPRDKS
UniProt Q8N5F7: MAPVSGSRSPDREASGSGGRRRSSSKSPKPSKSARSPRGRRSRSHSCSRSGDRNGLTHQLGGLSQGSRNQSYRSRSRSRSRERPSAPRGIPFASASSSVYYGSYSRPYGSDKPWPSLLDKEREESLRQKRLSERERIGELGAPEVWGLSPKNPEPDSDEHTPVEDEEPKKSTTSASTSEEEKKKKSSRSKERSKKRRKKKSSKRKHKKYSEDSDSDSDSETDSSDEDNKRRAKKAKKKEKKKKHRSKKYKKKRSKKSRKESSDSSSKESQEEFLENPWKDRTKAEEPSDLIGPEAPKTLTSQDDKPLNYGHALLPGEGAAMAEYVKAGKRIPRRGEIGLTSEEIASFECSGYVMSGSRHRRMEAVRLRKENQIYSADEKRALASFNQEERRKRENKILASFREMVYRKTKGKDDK
UniProt Q8N0X7: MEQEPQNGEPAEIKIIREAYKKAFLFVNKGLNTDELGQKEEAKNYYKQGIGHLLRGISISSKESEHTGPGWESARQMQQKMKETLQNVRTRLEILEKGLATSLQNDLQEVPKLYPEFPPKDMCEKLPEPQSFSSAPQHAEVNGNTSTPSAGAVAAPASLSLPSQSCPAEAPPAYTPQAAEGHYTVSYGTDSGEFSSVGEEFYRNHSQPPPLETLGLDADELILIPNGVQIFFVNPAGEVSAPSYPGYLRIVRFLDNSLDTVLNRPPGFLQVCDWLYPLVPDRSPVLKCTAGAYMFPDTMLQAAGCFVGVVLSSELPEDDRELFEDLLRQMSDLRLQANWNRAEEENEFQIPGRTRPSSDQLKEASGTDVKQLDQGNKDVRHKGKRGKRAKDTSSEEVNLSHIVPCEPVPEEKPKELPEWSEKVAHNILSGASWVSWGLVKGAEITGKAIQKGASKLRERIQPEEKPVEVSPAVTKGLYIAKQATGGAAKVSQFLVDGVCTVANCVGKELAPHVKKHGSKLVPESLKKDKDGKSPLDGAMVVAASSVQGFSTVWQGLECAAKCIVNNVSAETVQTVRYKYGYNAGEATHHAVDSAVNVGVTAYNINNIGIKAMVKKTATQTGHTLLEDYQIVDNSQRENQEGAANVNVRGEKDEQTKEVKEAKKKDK
UniProt Q8IY95: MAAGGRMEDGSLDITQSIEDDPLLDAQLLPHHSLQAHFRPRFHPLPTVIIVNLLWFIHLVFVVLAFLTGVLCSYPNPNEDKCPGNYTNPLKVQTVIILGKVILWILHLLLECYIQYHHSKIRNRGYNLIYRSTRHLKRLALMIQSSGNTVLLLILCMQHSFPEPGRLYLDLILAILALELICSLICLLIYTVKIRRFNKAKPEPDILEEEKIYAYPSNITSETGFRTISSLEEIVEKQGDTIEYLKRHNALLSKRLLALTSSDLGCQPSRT
UniProt Q86V85: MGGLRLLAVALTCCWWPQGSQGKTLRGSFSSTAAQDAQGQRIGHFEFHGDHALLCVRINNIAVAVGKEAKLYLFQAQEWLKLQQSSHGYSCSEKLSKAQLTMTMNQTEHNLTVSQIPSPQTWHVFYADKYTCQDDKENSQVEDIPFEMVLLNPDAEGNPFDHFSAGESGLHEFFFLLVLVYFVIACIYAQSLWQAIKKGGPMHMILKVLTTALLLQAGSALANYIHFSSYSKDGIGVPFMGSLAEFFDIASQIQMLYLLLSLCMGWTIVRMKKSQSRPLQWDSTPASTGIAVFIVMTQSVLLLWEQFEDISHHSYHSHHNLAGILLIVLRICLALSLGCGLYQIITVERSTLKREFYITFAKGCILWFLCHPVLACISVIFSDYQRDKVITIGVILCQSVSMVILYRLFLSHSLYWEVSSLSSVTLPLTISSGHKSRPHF
UniProt Q8IWD4: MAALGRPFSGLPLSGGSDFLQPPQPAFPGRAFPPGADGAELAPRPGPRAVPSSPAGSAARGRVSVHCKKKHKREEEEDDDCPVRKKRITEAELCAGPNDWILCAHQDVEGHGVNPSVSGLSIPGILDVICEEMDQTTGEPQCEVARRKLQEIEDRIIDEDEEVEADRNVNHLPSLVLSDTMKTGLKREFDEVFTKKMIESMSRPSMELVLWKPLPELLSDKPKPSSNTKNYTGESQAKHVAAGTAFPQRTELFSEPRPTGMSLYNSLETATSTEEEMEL
UniProt Q86X95: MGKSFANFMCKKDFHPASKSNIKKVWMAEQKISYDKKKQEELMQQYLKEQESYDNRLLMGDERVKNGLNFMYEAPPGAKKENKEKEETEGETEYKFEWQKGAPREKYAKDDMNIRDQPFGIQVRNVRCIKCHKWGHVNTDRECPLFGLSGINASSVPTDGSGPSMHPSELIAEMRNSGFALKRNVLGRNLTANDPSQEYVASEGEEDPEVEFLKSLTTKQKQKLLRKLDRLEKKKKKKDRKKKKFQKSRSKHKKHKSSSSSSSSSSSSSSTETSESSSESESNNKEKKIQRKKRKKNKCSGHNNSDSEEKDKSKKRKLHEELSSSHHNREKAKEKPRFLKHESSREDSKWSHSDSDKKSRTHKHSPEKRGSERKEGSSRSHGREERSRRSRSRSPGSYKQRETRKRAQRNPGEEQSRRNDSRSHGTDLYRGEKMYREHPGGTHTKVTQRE
UniProt Q86V21: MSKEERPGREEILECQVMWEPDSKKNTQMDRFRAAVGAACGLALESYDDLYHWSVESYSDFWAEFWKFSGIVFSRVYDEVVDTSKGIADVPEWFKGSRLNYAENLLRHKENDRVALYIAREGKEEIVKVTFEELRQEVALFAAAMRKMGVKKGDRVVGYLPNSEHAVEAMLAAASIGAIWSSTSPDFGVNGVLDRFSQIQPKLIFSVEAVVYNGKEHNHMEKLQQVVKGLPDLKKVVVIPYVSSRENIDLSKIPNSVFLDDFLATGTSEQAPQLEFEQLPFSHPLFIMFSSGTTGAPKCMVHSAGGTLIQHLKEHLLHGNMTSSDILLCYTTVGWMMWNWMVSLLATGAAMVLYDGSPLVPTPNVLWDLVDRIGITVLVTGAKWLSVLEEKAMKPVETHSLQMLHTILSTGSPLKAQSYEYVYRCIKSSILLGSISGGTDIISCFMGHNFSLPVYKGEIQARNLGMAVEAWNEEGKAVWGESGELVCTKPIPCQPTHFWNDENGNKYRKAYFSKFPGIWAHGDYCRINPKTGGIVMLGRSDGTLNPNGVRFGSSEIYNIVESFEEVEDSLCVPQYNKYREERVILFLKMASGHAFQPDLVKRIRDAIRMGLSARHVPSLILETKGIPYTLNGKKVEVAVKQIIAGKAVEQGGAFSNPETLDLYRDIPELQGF

Compound: Nc1ncnc2c1ncn2[C@@H]1O[C@H](COP(=O)(O)OP(=O)(O)NP(=O)(O)O)[C@@H](O)[C@H]1O [adenylyl imidodiphosphate]
Experiment: NP40-soluble protein abundance relative to vehicle (solubility fold change) (ratio); higher = more soluble protein in presence of AMP-PNP
Settings: concentration: 0.1mM
Outline: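 Jurkat crude lysate prepared with a Dounce homogeniser was treated at eight concentrations spanning 0.1 to 10 mM, 10 min at room temperature then 3 min at 37 °C. Solubilisation with 0.8% NP40 and benzonase and ultracentrifugation preceded TMT labelling of the supernatant for LC-MS/MS. Fold change against the detergent-processed vehicle was determined per replicate from vsn-normalised intensities, across three independent experiments.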

Target	NP40-soluble protein abundance
UniProt Q8N6M0 and related entries	1.01 ± 0.024
UniProt Q8N9V3 and related entries	0.967 ± 0.011
UniProt Q8IVW6 and related entries	1.06 ± 0.063
RYBP (UniProt Q8N488)	0.974 ± 0.023
UniProt Q8IUD2 and related entries	0.952 ± 0.03
UniProt Q8IYU8 and related entries	1 ± 0.012
UniProt Q8IXQ6-2|Q8IXQ6-3|G5E9U8 and related entries	0.999 ± 0.049
PM20D2 (UniProt Q8IYS1)	1.02 ± 0.054
MTDH (UniProt Q86UE4)	0.99 ± 0.034
MICALL1 (UniProt Q8N3F8)	0.955 ± 0.016

Laid out differently: results already given
PM20D2 (UniProt Q8IYS1)
  NP40-soluble protein abundance: 1.02 ± 0.054
MTDH (UniProt Q86UE4)
  NP40-soluble protein abundance: 0.99 ± 0.034

Same assay, conditions: concentration: 0.5mM

Target	NP40-soluble protein abundance
NKAP (UniProt Q8N5F7)	1.03 ± 0.064
ZBTB33 (UniProt Q86T24)	0.974 ± 0.041
UniProt Q8N5C7 and related entries	1.02 ± 0.052
UniProt Q8N0X7	1.021 ± 0.0063
UniProt Q86U42 and related entries	1 ± 0.041
UniProt Q8IY95 and related entries	1 ± 0.027
UniProt Q8N1G2	0.978 ± 0.044
GPR180 (UniProt Q86V85)	0.952 ± 0.012
UniProt Q8IUF8 and related entries	1.01 ± 0.033
PLD3 (UniProt Q8IV08)	0.969 ± 0.034
UniProt Q8IWD4 and related entries	0.994 ± 0.042
UniProt Q86X95	0.962 ± 0.027
GUF1 (UniProt Q8N442)	0.996 ± 0.026
UniProt Q8NBL1	0.997 ± 0.016
DCP1B (UniProt Q8IZD4)	0.964 ± 0.019
AACS (UniProt Q86V21)	0.945 ± 0.05
UniProt Q8N573 and related entries	0.96 ± 0.025
